Measurements reported in paper PMC4512008.
Results are given in words; binding and its absence hold for the method and conditions named. In cells and extracts the contact can be indirect. Some entries that bind do so weakly or less than the wild type.

The chains behind the UniProt entries cited, without tags or fusion partners.
UniProt P42337: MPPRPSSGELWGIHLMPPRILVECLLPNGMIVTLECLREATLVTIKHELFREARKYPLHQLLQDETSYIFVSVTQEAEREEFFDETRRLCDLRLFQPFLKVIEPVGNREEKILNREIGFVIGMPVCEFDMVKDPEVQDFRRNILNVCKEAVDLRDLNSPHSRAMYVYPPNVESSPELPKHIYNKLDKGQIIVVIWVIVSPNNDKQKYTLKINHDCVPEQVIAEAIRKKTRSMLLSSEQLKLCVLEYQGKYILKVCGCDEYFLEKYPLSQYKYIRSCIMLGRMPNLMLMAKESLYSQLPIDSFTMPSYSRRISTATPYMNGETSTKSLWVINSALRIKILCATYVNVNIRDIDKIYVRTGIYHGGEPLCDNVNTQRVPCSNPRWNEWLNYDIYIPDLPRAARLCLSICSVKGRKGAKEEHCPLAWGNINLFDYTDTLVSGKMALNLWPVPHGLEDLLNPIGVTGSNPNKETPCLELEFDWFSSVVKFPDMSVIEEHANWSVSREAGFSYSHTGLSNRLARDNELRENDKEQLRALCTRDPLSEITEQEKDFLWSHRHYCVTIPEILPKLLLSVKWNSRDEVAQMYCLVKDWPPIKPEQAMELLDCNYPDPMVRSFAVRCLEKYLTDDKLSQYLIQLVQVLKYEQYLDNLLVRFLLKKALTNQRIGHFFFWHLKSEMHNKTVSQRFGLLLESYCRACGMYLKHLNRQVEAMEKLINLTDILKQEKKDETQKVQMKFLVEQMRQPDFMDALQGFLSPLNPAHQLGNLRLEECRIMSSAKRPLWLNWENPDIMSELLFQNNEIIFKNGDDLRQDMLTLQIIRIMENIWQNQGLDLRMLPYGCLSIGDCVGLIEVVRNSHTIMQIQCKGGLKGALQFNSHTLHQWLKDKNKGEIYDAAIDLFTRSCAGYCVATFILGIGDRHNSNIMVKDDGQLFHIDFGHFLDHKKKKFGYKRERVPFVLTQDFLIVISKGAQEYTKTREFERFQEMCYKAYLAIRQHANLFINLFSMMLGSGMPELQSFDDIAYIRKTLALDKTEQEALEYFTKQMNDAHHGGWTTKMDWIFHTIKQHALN

Molecular target: T1, IRGM1 (UniProt Q60766)
T1 sequence: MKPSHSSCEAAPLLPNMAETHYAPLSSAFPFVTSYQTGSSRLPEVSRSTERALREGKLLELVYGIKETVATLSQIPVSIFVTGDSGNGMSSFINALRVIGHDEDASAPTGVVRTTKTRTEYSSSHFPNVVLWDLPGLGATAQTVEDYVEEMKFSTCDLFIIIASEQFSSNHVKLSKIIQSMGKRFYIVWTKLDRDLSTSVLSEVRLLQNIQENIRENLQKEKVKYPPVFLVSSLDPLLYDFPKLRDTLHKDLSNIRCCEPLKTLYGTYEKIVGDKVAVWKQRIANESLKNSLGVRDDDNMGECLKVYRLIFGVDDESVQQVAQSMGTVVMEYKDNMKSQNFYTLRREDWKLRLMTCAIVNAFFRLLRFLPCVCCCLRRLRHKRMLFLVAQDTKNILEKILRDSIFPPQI
Experiment: co-IP; total B16 cell lysates incubated with anti-IRGM1 polyclonal antibody (AbMart) at 4 °C overnight, captured on Protein A/G agarose beads; PIK3CA detected by blot; non-immune IgG as control

## PIK3CA (from UniProt P42337 1-1068)
  binding: binds
